Measured values taken from patent publication US20200369773A1 (CELDARA MEDICAL, published 2020).
These are yes or no findings as the source states them, for the method shown. Some results given as binding are weak or reduced against the parent protein; the word gives no strength. Tags and fused reporters may be left off the sequences shown.

Target: T1, FITC-recombinant mouse Fn14:human Fc (ENZO ALX-522-036F) (mouse) (UniProt Q9CR75)
T1 sequence (chain, FITC label (site not stated)): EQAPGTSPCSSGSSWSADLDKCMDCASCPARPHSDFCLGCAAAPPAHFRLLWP
Assay: flow cytometry; transduced mouse T cells stained with FITC-recombinant mouse Fn14:human Fc

B1: scFvP3G5VLVH-mCD28H-mCD28TM-mCD28CS-mCD3zICS (anti-Fn14 CAR) (receptor)
chain: DIVLTQSPASLAVSLGQRATISCRANKSVSTSSYSYMHWYQQKPGQPPKLLIKYASNLESGVPARFSGSGSGTDFILNIHPVEEEDAATYYCQHSRELPFTFGSGTKLEIKGGGGSGGGGSGGGGSQVQLQQSGPEVVRPGVSVKISCKGSGYTFTDYGIHWVKQSHAKSLEWIGVISTYNGYTNYNQKFKGKATMTVDKSSSTAYMELARLTSEDSAIYYCARAYYGNLYYAMDYWGQGTSVTVSSIKEKHLCHTQSSPKLFWALVVVAGVLFCYGLLVTVALCVIWTNSRRNRLLQSDYMNMTPRRPGLTRKPYQPYAPARDFAAYRPRAKFSRSAETAANLQDPNQLYNELNLGRREEYDVLEKKRARDPEMGGKQQRRRNPQEGVYNALQKDKMAEAYSEIGTKGERRRGKGHDGLYQGLSTATKDTYDALHMQTLAPR
notes: Chimeric antigen receptor on transduced mouse T cells
- binding: binds

B2: scFvP3G5VHVL-mCD28H-mCD28TM-mCD28CS-mCD3zICS (anti-Fn14 CAR) (receptor)
chain: QVQLQQSGPEVVRPGVSVKISCKGSGYTFTDYGIHWVKQSHAKSLEWIGVISTYNGYTNYNQKFKGKATMTVDKSSSTAYMELARLTSEDSAIYYCARAYYGNLYYAMDYWGQGTSVTVSSGGGGSGGGGSGGGGSDIVLTQSPASLAVSLGQRATISCRANKSVSTSSYSYMHWYQQKPGQPPKLLIKYASNLESGVPARFSGSGSGTDFILNIHPVEEEDAATYYCQHSRELPFTFGSGTKLEIKIKEKHLCHTQSSPKLFWALVVVAGVLFCYGLLVTVALCVIWTNSRRNRLLQSDYMNMTPRRPGLTRKPYQPYAPARDFAAYRPRAKFSRSAETAANLQDPNQLYNELNLGRREEYDVLEKKRARDPEMGGKQQRRRNPQEGVYNALQKDKMAEAYSEIGTKGERRRGKGHDGLYQGLSTATKDTYDALHMQTLAPR
notes: as for B1
- binding: binds
